## Screening data, single-dose tests

The values are deposited in ChEMBL (CHEMBL3988442, “University of Dundee, Small-Polar-MMV Screening Library” (2021)).

The filed quantity is “Percent Effect” (%).
The controls that fix the scale are not given in the record; negative values are as filed.
Compounds were drawn at random from those tested, without regard to their results.
Two or more numbers in one place are separate tests of the same structure; such repeats can differ widely.

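Cell assay of Leishmania donovani living inside macrophages; the read-out is not stated. Compounds at 30 µM. The record gives no direction; compounds that gave an IC50 in retests scored well above the rest, so higher reads as stronger inhibition. About 69,000 compounds were tested under these conditions; 1.5% (about 1,000) showed 50% or more at least once.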

| # | Compound | effect |
|---|---|---|
| 1 | `O=C(CS(=O)(=O)Cc1nnnn1C1CC1)NCC1CC1` | 7.259 |
| 2 | `O=C(NCCc1ccccn1)c1n[nH]c2c1CCC2` | 17.8 |
| 3 | `O=C(CCSc1ccccc1)NCCn1nc2ccccn2c1=O` | 4.233 |
| 4 | `Cc1cnc(CNC(=O)N(Cc2ccccc2)CC(C)(C)O)s1` | 20.43 |
| 5 | `CCn1ccnc1CN1CCN(C(C)C)CC1C` (configuration not stated) | 16.21 |
| 6 | `COc1ccc(NC(=O)CCC(C)C)c(N2CCN(C(C)=O)CC2)n1` | 15.53 |
| 7 | `COCc1cnc2n1CCN(S(=O)(=O)c1c(C)nn(C)c1C)C2C` (configuration not stated) | -35.28 |
| 8 | `O=C(O)C(F)(F)F.[H][C@@]12C[C@H](C(=O)NC)[C@@]([H])(CN(Cc3ccccc3)C1)O2` | 55.32 |
| 9 | `CS(=O)(=O)Nc1cccc(CNC(=O)CCC(=O)c2cccs2)c1` | -2.381 |
| 10 | `CN(C)C(=O)N1CCc2c(COCC3CC3)cncc2C1` | -28.06 |
| 11 | `[H][C@@]12CCN(CCOC)C[C@@]1([H])[C@H](C(=O)Nc1cccnc1)CCO2` | -11.52 |
| 12 | `COCCOCC(=O)Nc1cccc(CN(C)C(C)=O)c1` | -68.37 |
| 13 | `CCCc1ncc(CN(CCOC)Cc2cccs2)cn1` | 11 |
| 14 | `Cc1ccc(S(N)(=O)=O)cc1C(=O)NCC1Cc2ccccc2O1` (configuration not stated) | 8.56 |
| 15 | `N#Cc1cccc(N2CCOCC3(CCCN(C(=O)NC4CC4)C3)C2)c1` (configuration not stated) | 7.108 |
| 16 | `COc1ccc(-c2cc(C3(O)CCN(C)CC3)on2)cc1` | 14.99 |
| 17 | `Cc1nc(CN2CCC(N(C)Cc3noc(C4CC4)n3)C2)oc1C` (configuration not stated) | 23.4 |
| 18 | `Cc1ccc(CNCc2cccc3cn[nH]c23)c(OC2CCOC2)c1` (configuration not stated) | -5.201 |
| 19 | `COc1nccnc1N1CCCC2(C1)C(=O)N(C)c1ccccc12` (configuration not stated) | 7.41 |
| 20 | `CC(=O)N1CCC1c1cc(NC2CCOCC2)nc(C)n1` (configuration not stated) | 14.49 |
| 21 | `CO[C@@H]1CCN(Cc2nccn2C)[C@H]1Cc1cccnc1.O=C(O)C(F)(F)F.O=C(O)C(F)(F)F` | 4.28 |
| 22 | `CN(Cc1nccn1C)C1CCN(CCc2ccccn2)CC1` | 39.18 |
| 23 | `O=C(O)C(F)(F)F.[H][C@@]12CCN(S(=O)(=O)C3CC3)C[C@]1(COc1ncccc1F)CCO2` | 15.02 |
| 24 | `CC(=O)c1c(F)cccc1N1CCC(CS(N)(=O)=O)CC1` | 11.72 |
| 25 | `O=C(O)C(F)(F)F.O=C(O)C(F)(F)F.[H][C@]12C[C@@H](CN(C)C)N(CC3CC3)[C@@]1([H])CCN(C(=O)c1cnoc1C)C2` | 25.67 |
| 26 | `NC(=O)N1CCCN(CC(=O)NCCc2c(F)cccc2F)CC1` | -0.5908 |
| 27 | `CCOc1ccnc(N2CCN(C(=O)c3ccc(OC)cc3)CC2)n1` | 7.136 |
| 28 | `CC1c2ncc(CN3CCN(C)CC3)n2CCN1Cc1cccnc1.O=C(O)C(F)(F)F.O=C(O)C(F)(F)F.O=C(O)C(F)(F)F.O=C(O)C(F)(F)F` (configuration not stated) | 32.92 |
| 29 | `CC(=O)c1cc2ncc(C(=O)NC3CC3)cc2[nH]1` | -40.85 |
| 30 | `COCCn1ccc(=O)c(OCC(=O)Nc2cccc(OC)c2)c1C` | 4.784 |
| 31 | `COCCNC(=O)Cn1cc(OCc2ccc(F)cc2)c(=O)cc1C` | 19.26 |
| 32 | `Cc1cc(F)cc2c(NCC(C)(C)C(N)=O)c(C#N)cnc12` | -7.532 |
| 33 | `CNS(=O)(=O)C1CCN(c2cc(C(C)C)nc(C(C)C)n2)C1` (configuration not stated) | 16.29 |
| 34 | `O=C(Nc1cccnc1-n1cncn1)C1CCC1` | -9.562 |
| 35 | `O=C(O)C(F)(F)F.[H][C@]12CCN(C(=O)C3CC3)CC[C@@]1([H])S(=O)(=O)CCN2Cc1cccc(C)n1` | -0.6444 & 3.173 |
| 36 | `CSCCC(CO)NC(=O)c1ccc2[nH]/c(=N\S(C)(=O)=O)sc2c1` (configuration not stated) | -24.53 |
| 37 | `COC(=O)c1ccoc1CN(C)Cc1cc(OC)c(OC)cc1C` | 2.072 |
| 38 | `Cc1nn(C)c(C)c1OCC(=O)N1CCCC1` | -0.9794 |
| 39 | `CC(=O)N[C@@H]1CN(C(=O)c2cccc(C)c2)C[C@H]1O` | 24.77 |
| 40 | `CCN1CCN(C2CCN(CCOc3ccc(F)cc3)CC2)C1=O` | 26.01 |
| 41 | `O=C(O)C(F)(F)F.[H][C@@]12CCCO[C@]1([H])[C@@H](Oc1cccnc1)CN2C(=O)CC1CCCC1` | 3.063 |
| 42 | `CC(=O)N1CCN(c2cc(-c3ccccc3)nc3c(C)c(C)nn23)CC1` | 6.393 |
| 43 | `COc1c(C2CCCN2C(=O)c2ccc(O)nc2)c(C)nn1C` (configuration not stated) | 7.023 |
| 44 | `CNC(=O)CNC(=O)c1ccc(-c2scnc2C)nc1` | 28.56 |
| 45 | `CCc1c(C)nn2c(O)cc(C3CCN(C(=O)C4CC4)C3)nc12` (configuration not stated) | 30.93 |
| 46 | `COCCOC1CCN(C(C(=O)O)c2ccc(OC)c(F)c2)CC1` (configuration not stated) | 10.13 |
| 47 | `Cc1nn(C)c(C)c1NC(=O)CN1CCN(c2nccs2)C(C)C1` (configuration not stated) | 35.19 |
| 48 | `Cc1ccc(C2CC(=O)NCc3nc(N)sc32)cc1C` (configuration not stated) | -64.39 |
| 49 | `Cc1ccc(Cl)cc1-n1nnnc1C1(N2CCCC2)CCCC1` | -25.18 |
| 50 | `Cc1nc(C)n(CC(C)C(=O)N2CCC(N3CCC(O)CC3)CC2)n1` (configuration not stated) | 40.12 |
| 51 | `Cc1ccc2nc(C3CCN(CCO)CC3)nn2c1` | -26.65 |
| 52 | `Cc1cc(-c2nccs2)nc(C2CCN(Cc3ccccn3)CC2)n1` | -10.18 |
| 53 | `COCCn1ccc2cc(NC(C)=O)ccc21` | 26.02 |
| 54 | `CC(C)CS(=O)(=O)CC(=O)NC(C)(C)c1cccc(F)c1` | -10.08 |
| 55 | `O=C(COc1coc(CN2CCCC2)cc1=O)Nc1cc(Cl)ccc1Cl` | -11.69 |
| 56 | `Oc1cccc(-c2cc(CC3(N(CC4CC4)CC4CC4)COC3)no2)c1` | 10.57 |
| 57 | `O=C1c2ncccc2C(CCO)N1Cc1ccccc1` (configuration not stated) | 7.522 |
| 58 | `CCOCCCC(=O)NCCC(=O)N1CCN(c2ccccn2)CC1` | 18 |
| 59 | `O=c1cc(-c2ccncc2)nc(-c2ccc(CN3CC[C@@H](O)C3)cc2)[nH]1` | -8.809 |
| 60 | `CN1CC2(CCN(C(=O)C3CCC3)CC2)COc2ccccc2S1(=O)=O` | 11.09 |
| 61 | `CNC(=O)CN1CCCC(Cc2ccccc2OC)C1` (configuration not stated) | -6.402 |
| 62 | `O=C(COC1CCOC1)N(CC(F)F)c1cccc(Cl)c1` (configuration not stated) | 17.9 |
| 63 | `O=C(c1ccc(-c2cccc3c2CCNC3)o1)N1CCCCC1` | -13.65 |
| 64 | `CCn1cc(CNC(=O)C2CCCC2)cn1` | 26.77 |
| 65 | `Cc1ccc(Cn2nc(C)c3c(C(=O)O)c(Cl)c(C)nc32)cc1` | 2.653 |
| 66 | `O=C(O)C(F)(F)F.[H][C@@]12COC[C@]1([H])[C@@H](OCC1CCOCC1)CN2Cc1nccs1` | 23.79 |
| 67 | `O=C(CCNc1ncccn1)NCc1ccc(Br)s1` | 14.9 |
| 68 | `Cc1cccc(CN2CCc3ncnc(C4CC4)c3CC2)n1.O=C(O)C(F)(F)F` | -24.45 |
| 69 | `CCC(c1nc(C(C)C)nn1-c1ccccn1)n1cccn1` (configuration not stated) | -42.63 |
| 70 | `Cc1cnn(CC(=O)NC2CCCc3cc(OC(F)F)ccc32)c1` (configuration not stated) | 22.42 |
| 71 | `NC(=O)C1=NC2=NS(=O)(=O)c3ccccc3N2N1Cc1ccc(Br)cc1` | 10.44 |

Once more, the final 8:

{"compound": "CCn1cc(CNC(=O)C2CCCC2)cn1", "effect": 26.77}
{"compound": "Cc1ccc(Cn2nc(C)c3c(C(=O)O)c(Cl)c(C)nc32)cc1", "effect": 2.653}
{"compound": "O=C(O)C(F)(F)F.[H][C@@]12COC[C@]1([H])[C@@H](OCC1CCOCC1)CN2Cc1nccs1", "effect": 23.79}
{"compound": "O=C(CCNc1ncccn1)NCc1ccc(Br)s1", "effect": 14.9}
{"compound": "Cc1cccc(CN2CCc3ncnc(C4CC4)c3CC2)n1.O=C(O)C(F)(F)F", "effect": -24.45}
{"compound": "CCC(c1nc(C(C)C)nn1-c1ccccn1)n1cccn1", "stereo": "configuration not stated", "effect": -42.63}
{"compound": "Cc1cnn(CC(=O)NC2CCCc3cc(OC(F)F)ccc32)c1", "stereo": "configuration not stated", "effect": 22.42}
{"compound": "NC(=O)C1=NC2=NS(=O)(=O)c3ccccc3N2N1Cc1ccc(Br)cc1", "effect": 10.44}